Data taken from paper doi:10.1101/2021.11.25.470006 (bioRxiv, 2021).
These are yes or no findings as the source states them, for the method shown.

T1: Smc6 (Walker B mutant E1048Q) (S. cerevisiae), Q12749
T1 chain: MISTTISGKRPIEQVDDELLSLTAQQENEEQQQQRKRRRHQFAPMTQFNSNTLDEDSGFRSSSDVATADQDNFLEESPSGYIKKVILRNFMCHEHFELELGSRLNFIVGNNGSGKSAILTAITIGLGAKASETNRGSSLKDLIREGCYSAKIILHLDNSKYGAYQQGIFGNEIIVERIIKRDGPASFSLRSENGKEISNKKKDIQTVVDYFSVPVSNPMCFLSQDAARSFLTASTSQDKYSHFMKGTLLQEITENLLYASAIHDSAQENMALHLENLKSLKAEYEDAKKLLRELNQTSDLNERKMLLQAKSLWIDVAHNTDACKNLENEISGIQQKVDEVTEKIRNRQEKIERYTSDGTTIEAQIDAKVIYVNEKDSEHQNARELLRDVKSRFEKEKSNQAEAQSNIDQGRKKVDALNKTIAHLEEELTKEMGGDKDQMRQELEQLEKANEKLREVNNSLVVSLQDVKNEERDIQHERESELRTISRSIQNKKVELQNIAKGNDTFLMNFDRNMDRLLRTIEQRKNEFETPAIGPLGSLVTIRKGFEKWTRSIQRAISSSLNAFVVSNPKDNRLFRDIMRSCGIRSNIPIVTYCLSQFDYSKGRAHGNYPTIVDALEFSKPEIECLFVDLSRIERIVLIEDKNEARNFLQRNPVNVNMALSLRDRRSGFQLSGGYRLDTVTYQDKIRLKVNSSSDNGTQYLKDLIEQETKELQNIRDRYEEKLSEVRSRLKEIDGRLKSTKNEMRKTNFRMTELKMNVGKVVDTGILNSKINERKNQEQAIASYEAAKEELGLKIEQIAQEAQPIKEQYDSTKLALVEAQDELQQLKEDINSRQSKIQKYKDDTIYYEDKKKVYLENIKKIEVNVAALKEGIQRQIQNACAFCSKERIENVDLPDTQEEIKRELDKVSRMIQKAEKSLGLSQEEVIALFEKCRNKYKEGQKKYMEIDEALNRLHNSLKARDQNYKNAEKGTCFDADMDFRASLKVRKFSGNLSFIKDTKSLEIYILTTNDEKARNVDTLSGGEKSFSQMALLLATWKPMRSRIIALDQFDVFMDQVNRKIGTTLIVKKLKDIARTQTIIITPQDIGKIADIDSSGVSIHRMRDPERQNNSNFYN


Target: T1, Smc6 (Walker B mutant E1048Q) (S. …)
Test: cryo-EM structure
Details: remark: other sources report otherwise

| binding | Binder |
| --- | --- |
| no binding | Nse1, Q07913 1-336 (protein, here or on the partner: BS3-crosslinked within the holo-complex; BS3-crosslinked within the holo-complex) MEVHEEQVSAPVTGDATAKYLLQYILSARGICHENALILALMRLETDASTLNTEWSIQQWVDKLNDYINAINVKLNLLGYKIIRINHGIGRNAVTLKAKQNFESFEDNTAIRAHNNDYAVLQSIVLPESNRFFVYVNLASTEETKLATRFNQNEIEFMKWAIEQFMISGETIVEGPALETSIIVKEVNRILVAATGDSNLAKWRKFSTFTVGSTNLFQFQELTATDIEDLLLRLCELKWFYRTQEGKFGIDLRCIAELEEYLTSMYNLNTCQNCHKLAIQGVRCGNESCREENEETGENSLSQIWHVDCFKHYITHVSKNCDRCGSSLITEGVYVI |
| no binding | Nse3, Q05541 1-303 (protein, here or on the partner: BS3-crosslinked within the holo-complex; BS3-crosslinked within the holo-complex) MSSIDNDSDVDLTEDLAVAKIVKENPVARKMVRYILSRGESQNSIITRNKLQSVIHEAAREENIAKPSFSKMFMDINAILYNVYGFELQGLPSKNNMNAGGNGSNSNTNKSMPEPLGHRAQKFILLNNVPHSKNFDDFKILQSAHTYEELIVTGEYIGDDIASGTSNTLESKLSTDRDLVYKGVLSVILCIVFFSKNNILHQELIKFLETFGIPSDGSKIAILNITIEDLIKSLEKREYIVRLEEKSDTDGEVISYRIGRRTQAELGLESLEKLVQEIMGLEKEQTKSLHDDIIKSIGDSYSI |
